Assay [1] has as its target T1, FLAG-Cdc25A (UniProt P30304).
T1 sequence: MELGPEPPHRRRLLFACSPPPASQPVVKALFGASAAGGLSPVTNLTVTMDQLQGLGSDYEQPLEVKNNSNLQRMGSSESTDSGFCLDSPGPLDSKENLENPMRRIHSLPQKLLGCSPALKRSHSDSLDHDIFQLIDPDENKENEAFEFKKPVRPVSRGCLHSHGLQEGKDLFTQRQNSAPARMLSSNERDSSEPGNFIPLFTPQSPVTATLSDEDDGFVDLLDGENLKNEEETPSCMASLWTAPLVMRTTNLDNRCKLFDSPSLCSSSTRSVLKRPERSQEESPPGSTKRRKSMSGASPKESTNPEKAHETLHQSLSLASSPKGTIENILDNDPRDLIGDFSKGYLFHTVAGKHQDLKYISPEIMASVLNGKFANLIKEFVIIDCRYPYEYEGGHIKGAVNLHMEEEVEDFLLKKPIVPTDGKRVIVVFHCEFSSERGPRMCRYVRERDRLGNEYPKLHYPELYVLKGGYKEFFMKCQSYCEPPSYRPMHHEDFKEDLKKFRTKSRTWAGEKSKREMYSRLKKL
The assay is described as follows: co-IP; in vitro: purified recombinant proteins incubated in RIPA buffer, precipitated with anti-GFP-Trap beads or anti-FLAG M2 beads, Western blot with anti-GFP and anti-FLAG; both purified.

The target of assay [2] is T1, FLAG-Cdc25A. The assay can be described thus: far-Western, overlay or dot blot; purified protein spotted on nitrocellulose at increasing amounts (BSA as control), blocked with 5% milk in TBST, incubated with the purified partner in 5% milk for 3 h at 4°C, bound protein detected with antibody; both purified.
A further assay has as its target T2, GFP-Cdc25A (UniProt P30304).
T2 sequence: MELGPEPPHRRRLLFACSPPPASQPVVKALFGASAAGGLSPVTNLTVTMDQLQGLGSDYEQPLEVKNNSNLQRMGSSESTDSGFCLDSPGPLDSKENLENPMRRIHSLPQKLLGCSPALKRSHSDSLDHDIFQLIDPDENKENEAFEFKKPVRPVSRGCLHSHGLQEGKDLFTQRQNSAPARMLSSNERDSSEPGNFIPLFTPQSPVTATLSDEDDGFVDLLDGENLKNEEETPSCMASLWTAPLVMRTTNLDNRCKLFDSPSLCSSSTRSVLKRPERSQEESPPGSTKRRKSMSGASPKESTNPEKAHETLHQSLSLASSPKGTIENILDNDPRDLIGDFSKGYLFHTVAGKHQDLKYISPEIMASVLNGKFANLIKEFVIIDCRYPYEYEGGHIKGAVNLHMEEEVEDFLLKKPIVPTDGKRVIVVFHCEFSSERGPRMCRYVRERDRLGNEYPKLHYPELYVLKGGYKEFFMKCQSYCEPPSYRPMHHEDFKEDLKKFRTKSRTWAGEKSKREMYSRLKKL
The assay is described as follows: co-IP; HEK 293T cells co-transfected for 24 h; lysates precipitated with anti-GFP antibody, Western blot.

In assay [3] the target is T3, GFP-ARD1A (UniProt P41227).
T3 sequence: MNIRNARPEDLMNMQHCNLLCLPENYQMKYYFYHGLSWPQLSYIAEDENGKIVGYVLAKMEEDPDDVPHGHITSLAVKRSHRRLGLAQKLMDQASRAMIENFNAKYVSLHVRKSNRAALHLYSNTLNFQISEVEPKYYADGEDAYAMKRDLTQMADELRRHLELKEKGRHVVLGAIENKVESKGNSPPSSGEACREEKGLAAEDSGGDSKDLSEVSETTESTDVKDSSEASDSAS
The assay is described as follows: co-IP; in vitro: purified recombinant proteins incubated in RIPA buffer, precipitated with anti-GFP-Trap beads or anti-FLAG M2 beads, Western blot with anti-GFP and anti-FLAG; both purified.

Assay [4] deals with T3, GFP-ARD1A. The assay is described as follows: far-Western, overlay or dot blot; purified protein spotted on nitrocellulose at increasing amounts (BSA as control), blocked with 5% milk in TBST, incubated with the purified partner in 5% milk for 3 h at 4°C, bound protein detected with antibody; both purified.
The target of the next assay is T4, His-HDAC11 (UniProt Q96DB2).
T4 sequence: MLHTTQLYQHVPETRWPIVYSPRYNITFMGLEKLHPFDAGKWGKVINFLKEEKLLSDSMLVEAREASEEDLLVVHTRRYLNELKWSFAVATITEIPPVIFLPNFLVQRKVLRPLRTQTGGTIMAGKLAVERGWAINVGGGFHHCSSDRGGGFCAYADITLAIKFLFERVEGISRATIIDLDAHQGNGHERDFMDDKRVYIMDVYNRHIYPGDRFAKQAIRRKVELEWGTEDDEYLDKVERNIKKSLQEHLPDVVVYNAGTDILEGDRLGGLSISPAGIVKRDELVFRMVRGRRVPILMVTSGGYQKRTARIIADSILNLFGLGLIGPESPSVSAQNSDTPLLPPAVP
The description is as above.

In assay [5] the target is T5, endogenous HDAC11 (human (endogenous in HEK 293T)) (UniProt Q96DB2).
T5 sequence: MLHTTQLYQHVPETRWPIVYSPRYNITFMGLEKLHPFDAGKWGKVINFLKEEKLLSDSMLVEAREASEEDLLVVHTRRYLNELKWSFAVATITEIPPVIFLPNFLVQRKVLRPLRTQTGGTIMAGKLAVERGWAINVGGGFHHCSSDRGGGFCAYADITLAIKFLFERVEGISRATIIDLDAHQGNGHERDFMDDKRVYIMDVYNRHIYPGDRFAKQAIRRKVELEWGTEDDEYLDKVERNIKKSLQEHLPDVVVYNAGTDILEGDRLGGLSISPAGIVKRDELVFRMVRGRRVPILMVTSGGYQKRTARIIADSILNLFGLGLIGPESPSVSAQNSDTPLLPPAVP
The assay can be described thus: co-IP; endogenous proteins, HEK 293T lysates in RIPA buffer with DNase I; anti-Cdc25A, anti-ARD1 or anti-HDAC11 with Protein G Plus/Protein A beads, 18 h at 4°C; washes with 200 μg/ml ethidium bromide; normal IgG as control.

The target in assay [6] is T6, endogenous Cdc25A (human (endogenous in HEK 293T)) (UniProt P30304).
T6 sequence: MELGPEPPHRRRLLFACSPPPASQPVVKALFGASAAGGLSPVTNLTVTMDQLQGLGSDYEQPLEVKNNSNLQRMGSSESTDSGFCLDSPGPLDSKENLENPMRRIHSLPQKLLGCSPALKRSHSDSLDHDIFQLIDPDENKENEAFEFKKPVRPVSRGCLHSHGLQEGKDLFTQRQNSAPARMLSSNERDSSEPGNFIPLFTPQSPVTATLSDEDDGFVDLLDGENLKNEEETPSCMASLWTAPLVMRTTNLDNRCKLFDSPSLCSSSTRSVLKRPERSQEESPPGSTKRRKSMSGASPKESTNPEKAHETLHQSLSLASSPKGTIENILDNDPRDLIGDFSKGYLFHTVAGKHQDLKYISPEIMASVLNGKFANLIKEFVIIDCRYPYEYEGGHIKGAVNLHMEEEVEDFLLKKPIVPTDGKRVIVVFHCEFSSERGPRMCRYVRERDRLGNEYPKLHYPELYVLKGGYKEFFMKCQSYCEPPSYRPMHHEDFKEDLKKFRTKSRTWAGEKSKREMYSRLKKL
Described as above.

No constants are given. Whether binding was seen depends on the method and setting. For part of these data: Binding seen in cells or lysates may run through a third protein. Some results given as binding are weak or reduced against the parent protein; the word gives no strength. For part of these data: Where a sequence is shown, tags or fusion partners need not be part of it.

The results in this text go back to publication PMC4991465.

B1: GFP-ARD1A (enzyme, UniProt P41227 1-235)
chain: MNIRNARPEDLMNMQHCNLLCLPENYQMKYYFYHGLSWPQLSYIAEDENGKIVGYVLAKMEEDPDDVPHGHITSLAVKRSHRRLGLAQKLMDQASRAMIENFNAKYVSLHVRKSNRAALHLYSNTLNFQISEVEPKYYADGEDAYAMKRDLTQMADELRRHLELKEKGRHVVLGAIENKVESKGNSPPSSGEACREEKGLAAEDSGGDSKDLSEVSETTESTDVKDSSEASDSAS
For the molecule B1, the binding result in the assay with FLAG-Cdc25A [1] and with FLAG-Cdc25A [2] was “binds” throughout.

B2: FLAG-tagged ARD1A (enzyme, UniProt P41227 1-235)
chain: MNIRNARPEDLMNMQHCNLLCLPENYQMKYYFYHGLSWPQLSYIAEDENGKIVGYVLAKMEEDPDDVPHGHITSLAVKRSHRRLGLAQKLMDQASRAMIENFNAKYVSLHVRKSNRAALHLYSNTLNFQISEVEPKYYADGEDAYAMKRDLTQMADELRRHLELKEKGRHVVLGAIENKVESKGNSPPSSGEACREEKGLAAEDSGGDSKDLSEVSETTESTDVKDSSEASDSAS
B2: the binding entry with GFP-Cdc25A is listed as “binds”.

B3: FLAG-Cdc25A (enzyme, UniProt P30304 1-524)
chain: MELGPEPPHRRRLLFACSPPPASQPVVKALFGASAAGGLSPVTNLTVTMDQLQGLGSDYEQPLEVKNNSNLQRMGSSESTDSGFCLDSPGPLDSKENLENPMRRIHSLPQKLLGCSPALKRSHSDSLDHDIFQLIDPDENKENEAFEFKKPVRPVSRGCLHSHGLQEGKDLFTQRQNSAPARMLSSNERDSSEPGNFIPLFTPQSPVTATLSDEDDGFVDLLDGENLKNEEETPSCMASLWTAPLVMRTTNLDNRCKLFDSPSLCSSSTRSVLKRPERSQEESPPGSTKRRKSMSGASPKESTNPEKAHETLHQSLSLASSPKGTIENILDNDPRDLIGDFSKGYLFHTVAGKHQDLKYISPEIMASVLNGKFANLIKEFVIIDCRYPYEYEGGHIKGAVNLHMEEEVEDFLLKKPIVPTDGKRVIVVFHCEFSSERGPRMCRYVRERDRLGNEYPKLHYPELYVLKGGYKEFFMKCQSYCEPPSYRPMHHEDFKEDLKKFRTKSRTWAGEKSKREMYSRLKKL
Regarding B3, the binding result with GFP-ARD1A [3], with GFP-ARD1A [4] and with His-HDAC11 was “binds” in each case.

B4: endogenous Cdc25A (enzyme, UniProt P30304 1-524)
chain: MELGPEPPHRRRLLFACSPPPASQPVVKALFGASAAGGLSPVTNLTVTMDQLQGLGSDYEQPLEVKNNSNLQRMGSSESTDSGFCLDSPGPLDSKENLENPMRRIHSLPQKLLGCSPALKRSHSDSLDHDIFQLIDPDENKENEAFEFKKPVRPVSRGCLHSHGLQEGKDLFTQRQNSAPARMLSSNERDSSEPGNFIPLFTPQSPVTATLSDEDDGFVDLLDGENLKNEEETPSCMASLWTAPLVMRTTNLDNRCKLFDSPSLCSSSTRSVLKRPERSQEESPPGSTKRRKSMSGASPKESTNPEKAHETLHQSLSLASSPKGTIENILDNDPRDLIGDFSKGYLFHTVAGKHQDLKYISPEIMASVLNGKFANLIKEFVIIDCRYPYEYEGGHIKGAVNLHMEEEVEDFLLKKPIVPTDGKRVIVVFHCEFSSERGPRMCRYVRERDRLGNEYPKLHYPELYVLKGGYKEFFMKCQSYCEPPSYRPMHHEDFKEDLKKFRTKSRTWAGEKSKREMYSRLKKL
Consider B4, for which the binding result in assay [5] is reported as “binds”.

B5: His-HDAC11 (enzyme, UniProt Q96DB2 1-347)
chain: MLHTTQLYQHVPETRWPIVYSPRYNITFMGLEKLHPFDAGKWGKVINFLKEEKLLSDSMLVEAREASEEDLLVVHTRRYLNELKWSFAVATITEIPPVIFLPNFLVQRKVLRPLRTQTGGTIMAGKLAVERGWAINVGGGFHHCSSDRGGGFCAYADITLAIKFLFERVEGISRATIIDLDAHQGNGHERDFMDDKRVYIMDVYNRHIYPGDRFAKQAIRRKVELEWGTEDDEYLDKVERNIKKSLQEHLPDVVVYNAGTDILEGDRLGGLSISPAGIVKRDELVFRMVRGRRVPILMVTSGGYQKRTARIIADSILNLFGLGLIGPESPSVSAQNSDTPLLPPAVP
On to B5, for which the binding result in the assay with FLAG-Cdc25A [2] was “binds”.

B6: endogenous HDAC11 (enzyme, UniProt Q96DB2 1-347)
chain: MLHTTQLYQHVPETRWPIVYSPRYNITFMGLEKLHPFDAGKWGKVINFLKEEKLLSDSMLVEAREASEEDLLVVHTRRYLNELKWSFAVATITEIPPVIFLPNFLVQRKVLRPLRTQTGGTIMAGKLAVERGWAINVGGGFHHCSSDRGGGFCAYADITLAIKFLFERVEGISRATIIDLDAHQGNGHERDFMDDKRVYIMDVYNRHIYPGDRFAKQAIRRKVELEWGTEDDEYLDKVERNIKKSLQEHLPDVVVYNAGTDILEGDRLGGLSISPAGIVKRDELVFRMVRGRRVPILMVTSGGYQKRTARIIADSILNLFGLGLIGPESPSVSAQNSDTPLLPPAVP
Consider B6, for which the binding result in assay [6] is “binds”.
